Measured values as given in article PMC9684443.
Results are given in words; binding and its absence hold for the method and conditions named. Binding seen in cells or lysates may run through a third protein. Some results given as binding are weak or reduced against the parent protein; the word gives no strength.

Sequences of proteins named here, by UniProt entry; tags and fusion partners are left off.
UniProt Q8TAQ2: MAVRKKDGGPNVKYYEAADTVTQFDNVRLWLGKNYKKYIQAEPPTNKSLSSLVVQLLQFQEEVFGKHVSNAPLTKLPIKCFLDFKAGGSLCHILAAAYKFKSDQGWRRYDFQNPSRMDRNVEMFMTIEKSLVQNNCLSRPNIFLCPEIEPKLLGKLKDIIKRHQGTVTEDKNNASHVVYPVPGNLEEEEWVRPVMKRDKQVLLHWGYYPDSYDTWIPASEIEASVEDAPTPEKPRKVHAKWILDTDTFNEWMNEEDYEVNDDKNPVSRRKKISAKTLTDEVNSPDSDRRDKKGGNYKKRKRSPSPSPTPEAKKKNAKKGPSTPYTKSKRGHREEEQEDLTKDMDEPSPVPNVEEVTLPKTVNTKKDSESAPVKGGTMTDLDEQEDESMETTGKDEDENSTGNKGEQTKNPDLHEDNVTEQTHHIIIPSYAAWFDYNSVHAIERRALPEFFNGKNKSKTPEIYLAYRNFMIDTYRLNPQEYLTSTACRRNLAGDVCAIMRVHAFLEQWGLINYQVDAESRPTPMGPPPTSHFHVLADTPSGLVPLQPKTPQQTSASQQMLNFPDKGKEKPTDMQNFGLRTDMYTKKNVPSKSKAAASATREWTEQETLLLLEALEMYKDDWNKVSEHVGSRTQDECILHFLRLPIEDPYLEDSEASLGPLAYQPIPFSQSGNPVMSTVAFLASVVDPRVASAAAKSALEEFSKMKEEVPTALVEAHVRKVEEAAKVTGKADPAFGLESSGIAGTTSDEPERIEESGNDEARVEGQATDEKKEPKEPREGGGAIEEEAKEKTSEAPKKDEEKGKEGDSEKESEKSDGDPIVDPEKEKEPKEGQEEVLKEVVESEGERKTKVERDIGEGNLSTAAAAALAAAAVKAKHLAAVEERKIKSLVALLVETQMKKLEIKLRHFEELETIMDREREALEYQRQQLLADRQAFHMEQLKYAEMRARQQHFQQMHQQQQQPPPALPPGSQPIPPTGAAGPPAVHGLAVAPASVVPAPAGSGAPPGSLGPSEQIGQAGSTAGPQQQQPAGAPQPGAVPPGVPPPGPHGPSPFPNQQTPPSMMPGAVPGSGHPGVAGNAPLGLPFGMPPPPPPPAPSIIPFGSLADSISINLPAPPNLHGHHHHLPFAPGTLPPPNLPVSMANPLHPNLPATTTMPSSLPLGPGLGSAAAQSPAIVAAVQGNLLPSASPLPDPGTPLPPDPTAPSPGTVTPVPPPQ
UniProt P51532: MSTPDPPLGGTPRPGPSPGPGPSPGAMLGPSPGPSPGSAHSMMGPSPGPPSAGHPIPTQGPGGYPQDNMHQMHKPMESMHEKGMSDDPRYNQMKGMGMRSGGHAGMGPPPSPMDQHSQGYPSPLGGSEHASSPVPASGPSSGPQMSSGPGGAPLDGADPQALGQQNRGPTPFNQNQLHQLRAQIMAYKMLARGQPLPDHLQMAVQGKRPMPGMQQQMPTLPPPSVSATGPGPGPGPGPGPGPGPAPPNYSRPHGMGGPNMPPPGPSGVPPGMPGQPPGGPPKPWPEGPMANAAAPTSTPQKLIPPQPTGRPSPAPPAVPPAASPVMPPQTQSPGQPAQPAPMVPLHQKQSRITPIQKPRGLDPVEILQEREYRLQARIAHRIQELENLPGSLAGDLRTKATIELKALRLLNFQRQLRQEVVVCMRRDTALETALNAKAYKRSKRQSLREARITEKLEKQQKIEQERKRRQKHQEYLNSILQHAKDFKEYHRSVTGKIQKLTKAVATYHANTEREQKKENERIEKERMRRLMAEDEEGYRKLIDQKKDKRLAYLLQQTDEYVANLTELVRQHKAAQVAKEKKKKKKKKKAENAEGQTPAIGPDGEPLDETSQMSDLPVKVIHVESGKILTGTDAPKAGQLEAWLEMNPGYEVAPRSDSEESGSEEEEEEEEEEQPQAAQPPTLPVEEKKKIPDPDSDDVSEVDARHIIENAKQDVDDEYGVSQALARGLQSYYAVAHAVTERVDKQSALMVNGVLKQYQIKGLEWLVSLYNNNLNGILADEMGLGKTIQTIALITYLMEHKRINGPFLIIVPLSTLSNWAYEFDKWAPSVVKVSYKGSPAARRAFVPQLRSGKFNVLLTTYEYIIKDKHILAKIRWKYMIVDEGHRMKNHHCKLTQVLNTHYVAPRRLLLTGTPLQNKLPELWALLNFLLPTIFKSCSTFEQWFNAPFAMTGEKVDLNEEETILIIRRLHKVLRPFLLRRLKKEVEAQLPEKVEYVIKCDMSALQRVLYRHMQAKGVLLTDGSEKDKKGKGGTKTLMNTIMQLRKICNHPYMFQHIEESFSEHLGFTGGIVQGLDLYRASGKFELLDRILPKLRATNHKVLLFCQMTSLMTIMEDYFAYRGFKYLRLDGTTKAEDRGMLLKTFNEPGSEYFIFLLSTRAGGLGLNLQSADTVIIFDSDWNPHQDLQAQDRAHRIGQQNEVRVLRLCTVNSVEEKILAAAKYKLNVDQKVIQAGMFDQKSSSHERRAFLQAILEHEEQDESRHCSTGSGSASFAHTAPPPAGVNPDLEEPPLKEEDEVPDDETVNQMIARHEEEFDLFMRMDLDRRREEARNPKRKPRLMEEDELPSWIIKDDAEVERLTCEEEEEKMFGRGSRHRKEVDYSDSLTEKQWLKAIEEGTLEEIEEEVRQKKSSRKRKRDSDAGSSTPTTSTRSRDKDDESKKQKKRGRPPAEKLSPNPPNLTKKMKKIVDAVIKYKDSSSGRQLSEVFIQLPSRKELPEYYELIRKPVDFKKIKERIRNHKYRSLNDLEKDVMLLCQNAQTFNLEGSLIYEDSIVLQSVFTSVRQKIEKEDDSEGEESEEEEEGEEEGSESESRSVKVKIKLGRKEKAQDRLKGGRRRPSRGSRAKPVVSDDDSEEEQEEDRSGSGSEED

Molecular target: SMARCC2 (human (endogenous in U118MG)) (UniProt Q8TAQ2)
Assay: co-IP; immunoprecipitation of SMARCC2 from nuclear extracts of U118MG cells (with CRISPR-Cas9 knockout of SMARCC2), immunoblotting for SMARCB1, SMARCC1, SMARCA4

- binding: binds
Substance: SMARCA4 (from UniProt P51532 1-1647)
